Measurements published in PMC12003641.
Results are given in words; binding and its absence hold for the method and conditions named. Binding seen in cells or lysates may run through a third protein. Some results given as binding are weak or reduced against the parent protein; the word gives no strength. Where a sequence is shown, tags or fusion partners need not be part of it.

Protein sequences, listed by entry. Tags and fused reporters are not part of them.
UniProt P40337: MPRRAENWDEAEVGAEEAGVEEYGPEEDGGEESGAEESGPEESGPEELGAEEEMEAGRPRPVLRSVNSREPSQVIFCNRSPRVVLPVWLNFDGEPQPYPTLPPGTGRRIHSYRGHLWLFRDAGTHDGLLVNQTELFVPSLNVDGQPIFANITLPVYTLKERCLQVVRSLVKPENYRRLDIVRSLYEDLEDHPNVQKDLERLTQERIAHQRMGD

Biological target: T1, Flag-tagged pRb (UniProt P06400)
T1 sequence: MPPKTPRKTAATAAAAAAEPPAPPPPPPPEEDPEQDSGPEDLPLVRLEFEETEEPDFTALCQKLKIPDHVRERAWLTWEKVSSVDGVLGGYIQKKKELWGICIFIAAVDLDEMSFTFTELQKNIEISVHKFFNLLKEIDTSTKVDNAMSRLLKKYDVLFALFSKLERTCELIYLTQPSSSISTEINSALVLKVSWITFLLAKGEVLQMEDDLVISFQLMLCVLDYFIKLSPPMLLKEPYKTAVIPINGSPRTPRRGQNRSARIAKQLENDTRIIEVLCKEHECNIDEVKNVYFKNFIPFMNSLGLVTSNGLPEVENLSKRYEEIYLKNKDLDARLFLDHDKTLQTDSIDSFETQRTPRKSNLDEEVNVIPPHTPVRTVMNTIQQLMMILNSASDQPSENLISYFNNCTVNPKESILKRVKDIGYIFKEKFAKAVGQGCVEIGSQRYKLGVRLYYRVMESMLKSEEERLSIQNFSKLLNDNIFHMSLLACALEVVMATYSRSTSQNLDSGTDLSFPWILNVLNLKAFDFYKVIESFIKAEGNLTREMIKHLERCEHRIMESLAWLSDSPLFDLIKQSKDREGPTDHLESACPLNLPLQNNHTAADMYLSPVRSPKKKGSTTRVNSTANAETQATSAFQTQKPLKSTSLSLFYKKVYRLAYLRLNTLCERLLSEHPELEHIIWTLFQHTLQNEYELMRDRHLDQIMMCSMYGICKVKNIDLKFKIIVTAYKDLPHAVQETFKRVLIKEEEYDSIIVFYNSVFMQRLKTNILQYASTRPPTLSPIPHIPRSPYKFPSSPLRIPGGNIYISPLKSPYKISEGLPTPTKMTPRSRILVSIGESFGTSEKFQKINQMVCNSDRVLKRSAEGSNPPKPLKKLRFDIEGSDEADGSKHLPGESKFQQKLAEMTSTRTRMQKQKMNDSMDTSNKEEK
Assay: co-IP; HEK293A transfected with Flag-pRb and HA-VHL, with or without 10 µM MG132 for 4 h; immunoprecipitation of Flag-pRb; mild lysis buffer (10 mM Tris pH 7.5, 100 mM NaCl, 10 mM EDTA, 50 mM NaF, 1% NP-40)

HA-tagged VHL (transient, HA-VHL wt-pBabe-puro) (from UniProt P40337 1-213)
binding: binds
